Results deposited as PubChem BioAssay AID1259254 (NCATS, 2017)
In all, the deposit lists about 59,000 reagents; below is a random part of them. About 1,550 of all reagents (2.6%) were called active. 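G2 share is only a proxy for re-replication; each gene was hit by three separate siRNAs, and active genes were retested.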 Raw values are not corrected between plates. Reagents against one gene are numbered here. Not stated in the record: the amount of reagent.

- Aim: 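Genome-wide screen for genes that prevent DNA re-replication in cancer cells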 (primary screen)
- Cells: human HCT116 colorectal cancer cells
- Knock-down reagent: single siRNA against human genes
- Time to read-out: 3 days
- Read-out: 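Imaged Hoechst DNA stain sorts each cell into a cycle phase by DNA amount; per plate, G2 fraction set to 0% for non-targeting and 100% for GMNN siRNA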
- Direction: G2 robust z-score and G2 cells, % of GMNN control: higher = more G2 cells, more excess DNA replication; raw share of cells in G2: higher = larger share of cells with G2 DNA content
- Hit rule: 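An siRNA counts as active if its G2 robust z-score lies at least 5 MADs above the screen median; here such calls match roughly 38% of GMNN control or more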

| gene knocked down | reagent no. | G2 robust z-score | G2 cells, % of GMNN control | raw share of cells in G2 (%) | Call |
| --- | --- | --- | --- | --- | --- |
| FAM110B | 1 | 0.184 | 4.26 | 5.89 | inactive |
| FAM110B | 2 | -0.298 | 0.872 | 3.27 | inactive |
| FAM110B | 3 | 1.45 | 13.2 | 7.1 | inactive |
| CCL2 | 1 | 1.13 | 10.9 | 7.56 | inactive |
| CCL2 | 2 | 1.96 | 16.7 | 11.3 | inactive |
| CCL2 | 3 | 2.28 | 19 | 11.1 | inactive |
| ZBTB37 | 1 | 0.0258 | 3.15 | 3.9 | inactive |
| ZBTB37 | 2 | 1.69 | 14.9 | 12.6 | inactive |
| ZBTB37 | 3 | -0.482 | -0.423 | 3.5 | inactive |
| PXN | 1 | -0.976 | -3.9 | 3.19 | inactive |
| PXN | 2 | -0.0616 | 2.53 | 4.99 | inactive |
| PXN | 3 | -0.778 | -2.51 | 4.12 | inactive |
| MIGA1 | 1 | 5.39 | 40.9 | 18 | active |
| MIGA1 | 2 | 0.163 | 4.11 | 5.06 | inactive |
| MIGA1 | 3 | 2.5 | 20.5 | 12.5 | inactive |
| CELF5 | 1 | 0.464 | 6.23 | 8.23 | inactive |
| CELF5 | 2 | -0.532 | -0.774 | 3.94 | inactive |
| CELF5 | 3 | 0.647 | 7.52 | 7.01 | inactive |
| EXO5 | 1 | -0.802 | -2.68 | 3.41 | inactive |
| EXO5 | 2 | 0.109 | 3.74 | 6.28 | inactive |
| EXO5 | 3 | -0.229 | 1.35 | 3.05 | inactive |
| SCGB1D2 | 1 | 4.65 | 35.7 | 18.9 | inactive |
| SCGB1D2 | 2 | 0.254 | 4.75 | 4.95 | inactive |
| SCGB1D2 | 3 | 1.69 | 14.9 | 10.8 | inactive |
| PADI6 | 1 | -0.458 | -0.258 | 3.9 | inactive |
| PADI6 | 2 | 1.27 | 11.9 | 8.46 | inactive |
| PADI6 | 3 | 3.38 | 26.7 | 15 | inactive |
| DDX19B | 1 | 2.72 | 22.1 | 11.4 | inactive |
| DDX19B | 2 | 1.25 | 11.7 | 8.08 | inactive |
| DDX19B | 3 | 5.7 | 43.1 | 23.7 | active |
| CLCA2 | 1 | -1.1 | -4.8 | 3.54 | inactive |
| CLCA2 | 2 | -0.54 | -0.834 | 4.5 | inactive |
| CLCA2 | 3 | 0.157 | 4.07 | 5.97 | inactive |
| H1-0 | 1 | 3.84 | 30 | 19.4 | inactive |
| H1-0 | 2 | 0.16 | 4.09 | 5.59 | inactive |
| H1-0 | 3 | 0.427 | 5.97 | 5.86 | inactive |
| COL17A1 | 1 | -0.29 | 0.925 | 3.83 | inactive |
| COL17A1 | 2 | 0.405 | 5.81 | 7.57 | inactive |
| COL17A1 | 3 | -0.656 | -1.65 | 2.51 | inactive |
| CWF19L1 | 1 | 1.95 | 16.7 | 10.9 | inactive |
| CWF19L1 | 2 | 0.88 | 9.16 | 7.93 | inactive |
| CWF19L1 | 3 | 5.37 | 40.7 | 16.1 | active |
| NME5 | 1 | -0.247 | 1.23 | 6.01 | inactive |
| NME5 | 2 | -1.26 | -5.92 | 3.42 | inactive |
| NME5 | 3 | -0.712 | -2.04 | 3.31 | inactive |
| ACCSL | 1 | -0.967 | -3.83 | 2.46 | inactive |
| ACCSL | 2 | -0.034 | 2.73 | 4.59 | inactive |
| ACCSL | 3 | -0.634 | -1.49 | 3.99 | inactive |
| LOX | 1 | 8.23 | 60.9 | 29.6 | active |
| LOX | 2 | 5.64 | 42.6 | 21.8 | active |
| LOX | 3 | -0.847 | -2.99 | 2.21 | inactive |
| PARL | 1 | 4 | 31.1 | 16.4 | inactive |
| PARL | 2 | 5.77 | 43.5 | 20.3 | active |
| PARL | 3 | -0.361 | 0.429 | 4.07 | inactive |
| PDLIM4 | 1 | -0.157 | 1.86 | 5.38 | inactive |
| PDLIM4 | 2 | -1.62 | -8.41 | 2.31 | inactive |
| PDLIM4 | 3 | -0.472 | -0.35 | 4.58 | inactive |
| CTBP1 | 1 | -0.905 | -3.4 | 3.75 | inactive |
| CTBP1 | 2 | 1.77 | 15.4 | 10.6 | inactive |
| CTBP1 | 3 | -1.22 | -5.58 | 2.17 | inactive |
| KMT2D | 1 | 0.0892 | 3.59 | 7.12 | inactive |
| KMT2D | 2 | 0.456 | 6.17 | 6.51 | inactive |
| KMT2D | 3 | -1.05 | -4.44 | 2.61 | inactive |
| PTPRH | 1 | -0.149 | 1.92 | 5.42 | inactive |
| PTPRH | 2 | 2.87 | 23.1 | 11.3 | inactive |
| PTPRH | 3 | -0.17 | 1.77 | 4.03 | inactive |
| RAB5CP2 | 1 | -1.05 | -4.45 | 0.965 | inactive |
| RAB5CP2 | 2 | 1.11 | 10.8 | 8.23 | inactive |
| RAB5CP2 | 3 | -0.548 | -0.892 | 2.82 | inactive |
| FAF2 | 1 | 2.38 | 19.7 | 12.7 | inactive |
| FAF2 | 2 | 0.407 | 5.83 | 6.54 | inactive |
| FAF2 | 3 | 1.16 | 11.1 | 7.34 | inactive |
| AQP2 | 1 | 0.305 | 5.11 | 6.89 | inactive |
| AQP2 | 2 | -1.22 | -5.62 | 1.9 | inactive |
| AQP2 | 3 | 0.057 | 3.37 | 5.87 | inactive |
| CFAP263 | 1 | -0.926 | -3.55 | 2.5 | inactive |
| CFAP263 | 2 | -0.321 | 0.71 | 4.82 | inactive |
| CFAP263 | 3 | -1.06 | -4.49 | 1.84 | inactive |
| CLCA1 | 1 | 0.44 | 6.06 | 7.49 | inactive |
| CLCA1 | 2 | 0.984 | 9.89 | 8.13 | inactive |
| CLCA1 | 3 | -0.4 | 0.152 | 4.43 | inactive |
| C7orf33 | 1 | -1.1 | -4.8 | 1.84 | inactive |
| C7orf33 | 2 | 2.73 | 22.2 | 10.7 | inactive |
| C7orf33 | 3 | 0.485 | 6.38 | 5.23 | inactive |
| CALHM5 | 1 | -0.29 | 0.924 | 3.91 | inactive |
| CALHM5 | 2 | 0.137 | 3.93 | 4.48 | inactive |
| CALHM5 | 3 | 4.1 | 31.8 | 13.3 | inactive |
